Source: patent publication US12624067B2, “Cyclic peptide, cell scaffold material, cell separating material, and medium” (FUJIFILM Corporation, priority 2019, dated 2026)
For part of these data: Part of at least one peptide drawing is inferred or uncertain, most often the ends. For part of these data: At least one compound was matched to its structure with a doubt left. Numbered stars: 1 amine (or outer) side, 2 acyl side, 3 side chain; on linkers, the order of the positions; unused ones are H or OH. Bridge positions count the residues as written; N and C are the ends. Square brackets hold non-standard residues; d marks the D form. Peptide text beside a SMILES is read from it. hCys = N[C@@H](CCS)C(=O)O; Dap = NC[C@H](N)C(=O)O; X1 = O=C(C[*:1])[*:2]; X2 = O=C(C[*:2])[*:1]

By UniProt entry, the sequences of proteins in these tests, tags left out. Residues count along the entry.
UniProt P06756, 891-1048 partner limits assumed: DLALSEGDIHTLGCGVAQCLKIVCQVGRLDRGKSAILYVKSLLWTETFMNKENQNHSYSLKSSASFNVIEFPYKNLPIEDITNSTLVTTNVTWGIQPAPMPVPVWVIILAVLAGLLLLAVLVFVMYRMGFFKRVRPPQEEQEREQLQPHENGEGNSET
UniProt P06756, 31-889 limits assumed: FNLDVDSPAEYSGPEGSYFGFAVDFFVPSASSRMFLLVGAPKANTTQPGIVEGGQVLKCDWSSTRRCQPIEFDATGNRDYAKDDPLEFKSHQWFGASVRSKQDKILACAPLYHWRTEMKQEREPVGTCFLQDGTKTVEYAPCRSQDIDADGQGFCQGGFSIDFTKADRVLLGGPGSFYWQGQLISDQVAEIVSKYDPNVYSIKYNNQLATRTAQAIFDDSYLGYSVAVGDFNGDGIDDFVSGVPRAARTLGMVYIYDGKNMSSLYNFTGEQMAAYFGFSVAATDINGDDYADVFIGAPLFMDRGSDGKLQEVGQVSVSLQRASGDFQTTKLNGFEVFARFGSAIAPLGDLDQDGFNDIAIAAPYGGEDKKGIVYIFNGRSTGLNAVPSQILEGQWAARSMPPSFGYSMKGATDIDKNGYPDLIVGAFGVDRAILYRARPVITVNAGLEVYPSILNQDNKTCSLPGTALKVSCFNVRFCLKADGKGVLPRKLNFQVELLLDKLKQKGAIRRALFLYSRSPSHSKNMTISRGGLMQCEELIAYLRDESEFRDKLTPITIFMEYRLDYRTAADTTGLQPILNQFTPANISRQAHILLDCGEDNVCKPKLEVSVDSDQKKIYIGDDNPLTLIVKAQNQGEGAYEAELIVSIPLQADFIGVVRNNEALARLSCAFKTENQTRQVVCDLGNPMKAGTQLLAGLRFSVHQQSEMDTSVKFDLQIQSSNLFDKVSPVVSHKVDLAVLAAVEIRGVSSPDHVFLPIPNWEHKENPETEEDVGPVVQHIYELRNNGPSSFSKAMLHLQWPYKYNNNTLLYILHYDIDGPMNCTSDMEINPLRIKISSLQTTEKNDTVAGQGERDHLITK
UniProt P18084, 24-799: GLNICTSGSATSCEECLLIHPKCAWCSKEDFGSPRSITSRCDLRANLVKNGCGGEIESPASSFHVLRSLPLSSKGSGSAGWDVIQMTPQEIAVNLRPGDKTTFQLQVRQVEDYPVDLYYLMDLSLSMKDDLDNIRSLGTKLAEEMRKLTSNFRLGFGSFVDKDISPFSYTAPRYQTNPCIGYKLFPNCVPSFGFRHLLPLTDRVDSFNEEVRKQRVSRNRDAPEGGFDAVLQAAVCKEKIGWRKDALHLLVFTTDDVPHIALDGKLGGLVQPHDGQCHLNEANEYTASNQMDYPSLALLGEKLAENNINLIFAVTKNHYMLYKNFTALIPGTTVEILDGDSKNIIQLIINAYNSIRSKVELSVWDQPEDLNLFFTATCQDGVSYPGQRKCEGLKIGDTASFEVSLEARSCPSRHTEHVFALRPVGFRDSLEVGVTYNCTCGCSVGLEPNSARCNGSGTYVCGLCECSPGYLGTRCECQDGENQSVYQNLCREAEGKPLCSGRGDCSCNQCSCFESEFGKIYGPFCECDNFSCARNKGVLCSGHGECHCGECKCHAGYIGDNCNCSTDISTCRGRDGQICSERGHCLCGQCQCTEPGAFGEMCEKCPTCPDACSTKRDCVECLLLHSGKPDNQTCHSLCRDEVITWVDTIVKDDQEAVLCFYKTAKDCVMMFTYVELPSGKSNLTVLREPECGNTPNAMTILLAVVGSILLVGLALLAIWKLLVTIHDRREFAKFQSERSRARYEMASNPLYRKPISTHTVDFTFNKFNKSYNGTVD

Legend:
iPS cell (01434 clone) = test: Evaluation of iPS cell culture performance of peptide (cell scaffold material); assay type: cell-based; conditions: peptide immobilized on CMD-coated polystyrene well, γ ray sterilized 25 kGy; cultured three days in mTeSR1, cell count by Vi-Cell XR
human integrin αvβ5 = human integrin αvβ5 (Homo sapiens, UniProt P06756+P18084); test: Evaluation of integrin binding property (surface plasmon resonance, Biacore 3000, immobilized cyclic peptide); conditions: peptide immobilized on CM5 sensor chip; human integrin αvβ5 30-1,000 nM, 25° C., HEPES buffer with 5 mM magnesium chloride; read-out: Integrin binding property (dissociation constant)
Description: A commercially available CM5 sensor chip (a carboxymethyl dextran introduction type, manufactured by GE Healthcare) was set in a surface plasmon resonance apparatus (product name: Biacore 3000, manufactured by GE Healthcare), the sensor was stabilized at a flow rate of 10 μL/min of a 4-(2-hydroxyethyl)-1-piperazineethanesulfonic acid (HEPES) buffer solution (20 mM HEPES-HCl, 150 mM NaCl, pH 7.4) for surface plasmon resonance (SPR), and 70 μL of a mixed aqueous solution of 0.2 M 1-(3-dimethylaminopropyl)-3-ethylcarbodiimide (EDC) and 0.04 M N-hydroxysuccinimide (NHS) was added thereto. […]
Then, a regeneration treatment of removing human integrin αvβ5 was carried out by allowing a 0.5 M EDTA aqueous solution to flow through each flow channel for 10 minutes. […] Dissociation constant between the cyclic peptide and human integrin αvβ5 was calculated from the difference between the value measured by Biacore 3000 in the flow channel immobilized with the cyclic peptide and the value measured by Biacore 3000 in the flow channel unimmobilized with the cyclic peptide, in a case where each concentration of human integrin αvβ5 was allowed to flow; and the integrin binding property was evaluated according to the following evaluation standards. […]

Row | SMILES | iPS cell proliferation on cell scaffold material (iPS cell (01434 clone)) | Kd (human integrin αvβ5) [µM]
1 | CC[C@H](C)[C@@H]1NC(=O)CSCC[C@@H](C(=O)N[C@@H](CCCCN)C(=O)N[C@@H](CCCCN)C(=O)N[C@@H](CCCCN)C(=O)O)NC(=O)[C@H](Cc2ccccc2)NC(=O)[C@@H]2CCCCNC(=O)CSCC[C@H](NC1=O)C(=O)N[C@@H](CCCNC(=N)N)C(=O)NCC(=O)N[C@@H](CC(=O)O)C(=O)N2 [Cyclic peptide 11] ({CH2CO}-I[hCys]RGDKF[hCys]KKK-OH; linker 2-6 via X1; thioether N-8) | iPS cells proliferate | 
2 | N=C(N)NCCC[C@@H]1NC(=O)[C@@H]2CNC(=O)CSCC[C@H](NC(=O)[C@H](CC(=O)O)NC(=O)CNC1=O)C(=O)N[C@@H](Cc1ccccc1)C(=O)N[C@H](C(=O)N[C@@H](CCCCN)C(=O)N[C@@H](CCCCN)C(=O)N[C@@H](CCCCN)C(=O)O)CCSCC(=O)N[C@@H](CCCCN)C(=O)N2 [Cyclic peptide 21] ({CH2CO}-K[Dap]RGD[hCys]F[hCys]KKK-OH; linker 2-6 via X2; thioether N-8; N-terminus and C-terminus assumed) |  | 0.05 to 0.1
3 | N=C(N)NCCC[C@@H]1NC(=O)[C@@H]2CSSC[C@H](NC(=O)[C@H](CC(=O)O)NC(=O)CNC1=O)C(=O)N[C@@H](Cc1ccccc1)C(=O)N[C@H](C(=O)N[C@@H](CCCCN)C(=O)N[C@@H](CCCCN)C(=O)N[C@@H](CCCCN)C(=O)O)CSCC(=O)N[C@@H](CCCCN)C(=O)N2 [Cyclic peptide 48, reference compound] ({CH2CO}-KCRGDCFCKKK-OH; disulfide 2-6; thioether N-8; N-terminus and C-terminus assumed) |  | < 0.05
